# PubChem BioAssay AID652259, Drosophila RNAi Screening Center | 2013
# Screen: 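Knock-downs that push a Wingless-driven reporter up or down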 (primary screen)
# Cells: Drosophila clone 8 imaginal disc epithelial cells
# Reagent: long dsRNA against Drosophila genes
# Conditions: pathway stimulated by co-transfected Wingless expression plasmid
# Detection: 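Dual luciferase reads per well after Wingless plasmid stimulation: reporter firefly light and Renilla control light; activity is firefly divided by Renilla, a ratio not deposited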
# Scale: firefly reporter light: higher = more Wg reporter light, before normalisation; Renilla control light: higher = more transfected or surviving cells
# Hit rule: 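Strong candidates differ from their plate mean by at least two out of four per-plate statistical tests; weak candidates meet just one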
# Meaning of the calls: active = candidate regulator (raises or lowers reporter); inactive = not a candidate
# In all, the deposit lists about 22,000 reagents; this is an unselected part of those that have a named target and a result. In the full data, 233 (1.1%) were called active. 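Light values are raw, unnormalised plate reads; the ratio scores behind the reporter calls were not deposited.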 The numbers tell different reagents against one gene apart. A plus sign joins genes that one reagent is predicted to hit. Not given: the amount of reagent, the time to read-out, the dose of the treatment.
target gene,reagent no.,"reporter change call, replicate 1","firefly reporter light, replicate 1","firefly reporter light, replicate 2","Renilla control light, replicate 1","Renilla control light, replicate 2",Outcome
CG1138,1,,4560,,1768,,inactive
C901,1,,18368,,9445,,inactive
CG8160,1,,10945,,4246,,inactive
CG8160,2,,7.60e5,6.99e5,3.67e5,3.28e5,inactive
CG32266,1,,2809,,1521,,inactive
CR31824,1,,16231,,7593,,inactive
Sod3,1,,10962,,4068,,inactive
DNaseII,1,,3221,5426,929,1712,inactive
CG31917 + Tfb5,1,Wg reporter activity raised,7668,15522,832,2284,inactive
CG31917 + Tfb5,2,,2650,5869,484,1196,inactive
THG,1,,3948,6630,1883,4514,inactive
CG18449,1,,1851,10208,667,2709,inactive
CG32815,1,,17859,,19288,,inactive
CG32815,2,,20369,,15820,,inactive
Polr2E,1,,5084,10935,651,1845,inactive
CG5068,1,,5452,,2038,,inactive
CG6675,1,,3819,5925,1344,2208,inactive
Cyp4ac3,1,,24682,,11101,,inactive
CG15754,1,,15223,,7687,,inactive
Grip,1,,32048,,2752,,inactive
Grip,2,,23712,,8388,,inactive
CG14683,1,,4077,,1568,,inactive
spn-B,1,,11763,,3504,,inactive
Gyc89Da,1,,26918,,6857,,inactive
Theg,1,,2880,4196,1057,1795,inactive
CG33523,1,,1591,6007,1671,3049,inactive
CG33523,2,,7.00e5,8.13e5,2.88e5,3.28e5,inactive
Klp67A + CG34456,1,,5942,,3456,,inactive
CG4730,1,,15783,,13436,,inactive
me31B,1,,13836,,1936,,inactive
Mst27D,1,,22688,,8532,,inactive
CNMa,1,,11170,,3139,,inactive
Fib,1,,3209,6888,1002,3427,inactive
CG46385,1,,4096,,419,,inactive
CG46385,2,,2572,5268,988,2352,inactive
lncRNA:sphinx + ATPsynF,1,,4887,,1959,,inactive
CG14631,1,,24407,,17515,,inactive
CG14631,2,,13712,,13051,,inactive
Acbp6,1,,2040,10196,1513,4545,inactive
CG3347,1,,2534,8381,1125,2960,inactive
trc,1,,21127,,5655,,inactive
Prx1,1,,4352,,1989,,inactive
CG14968,1,,5257,,2525,,inactive
Vps15,1,,5196,,2496,,inactive
CG17327,1,,19616,,3526,,inactive
CG14609,1,,9286,,2676,,inactive
Sgs1,1,,3638,4145,1274,952,inactive
Sgs1,2,,24869,,14077,,inactive
CG5757,1,,18347,,6035,,inactive

4 entries already listed, ordered by “Renilla control light, replicate 1”, highest first:
target gene,reagent no.,"reporter change call, replicate 1","firefly reporter light, replicate 1","firefly reporter light, replicate 2","Renilla control light, replicate 1","Renilla control light, replicate 2",Outcome
CG8160,2,,7.60e5,6.99e5,3.67e5,3.28e5,inactive
CR31824,1,,16231,,7593,,inactive
Sod3,1,,10962,,4068,,inactive
CG32266,1,,2809,,1521,,inactive
